Reference: PubChem BioAssay AID1259254 (NCATS, 2017)
Shown is a random part of about 59,000 reagents. About 1,550 of them (2.6%) were called active. 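G2 share is only a proxy for re-replication; each gene was hit by three separate siRNAs, and active genes were retested.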 The numbers tell different reagents against one gene apart. Further read-outs or replicates are left out here. The record does not give: the amount of reagent.

Test: 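Genome-wide screen for genes that prevent DNA re-replication in cancer cells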 (primary screen)
System: human HCT116 colorectal cancer cells
Reagents: single siRNA against human genes
Time to read-out: 3 days
Detection: 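Imaged Hoechst DNA stain sorts each cell into a cycle phase by DNA amount; per plate, G2 fraction set to 0% for non-targeting and 100% for GMNN siRNA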
Reading the numbers: G2 robust z-score: higher = more G2 cells, more excess DNA replication
Rule for the call: 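Active siRNAs have a G2 robust z of 5 or more median absolute deviations over the median, which in these data means about 38% or higher of GMNN control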

target gene,siRNA no.,G2 robust z-score,outcome
NEK5 (GeneID 341676),1,0.123,inactive
NEK5 (GeneID 341676),2,-0.753,inactive
NEK5 (GeneID 341676),3,-0.695,inactive
TMPRSS9 (GeneID 360200),1,0.271,inactive
TMPRSS9 (GeneID 360200),2,0.626,inactive
TMPRSS9 (GeneID 360200),3,-0.812,inactive
SYN2 (GeneID 6854),1,-0.537,inactive
SYN2 (GeneID 6854),2,-0.96,inactive
SYN2 (GeneID 6854),3,3.51,inactive
SLC25A18 (GeneID 83733),1,3.4,inactive
SLC25A18 (GeneID 83733),2,0.4,inactive
SLC25A18 (GeneID 83733),3,0.227,inactive
LRRC56 (GeneID 115399),1,-1.07,inactive
LRRC56 (GeneID 115399),2,0.155,inactive
LRRC56 (GeneID 115399),3,1.39,inactive
RBM19 (GeneID 9904),1,3.73,inactive
RBM19 (GeneID 9904),2,1.85,inactive
RBM19 (GeneID 9904),3,0.349,inactive
EVA1A (GeneID 84141),1,-0.982,inactive
EVA1A (GeneID 84141),2,0.693,inactive
EVA1A (GeneID 84141),3,0.118,inactive
PLAAT5 (GeneID 117245),1,3.57,inactive
PLAAT5 (GeneID 117245),2,1.08,inactive
PLAAT5 (GeneID 117245),3,-0.645,inactive
PLOD2 (GeneID 5352),1,-0.948,inactive
PLOD2 (GeneID 5352),2,-0.421,inactive
PLOD2 (GeneID 5352),3,-0.681,inactive
THNSL2 (GeneID 55258),1,-1.11,inactive
THNSL2 (GeneID 55258),2,-0.997,inactive
THNSL2 (GeneID 55258),3,7.27,active
KIF26B (GeneID 55083),1,-0.0801,inactive
KIF26B (GeneID 55083),2,-0.656,inactive
KIF26B (GeneID 55083),3,-1.06,inactive
LRTOMT (GeneID 220074),1,2.1,inactive
LRTOMT (GeneID 220074),2,0.975,inactive
LRTOMT (GeneID 220074),3,1.45,inactive
KMT2B (GeneID 9757),1,0.277,inactive
KMT2B (GeneID 9757),2,-0.443,inactive
KMT2B (GeneID 9757),3,1.46,inactive
GATC (GeneID 283459),1,0.465,inactive
GATC (GeneID 283459),2,1.79,inactive
GATC (GeneID 283459),3,0.8,inactive
DCAF5 (GeneID 8816),1,3.97,inactive
DCAF5 (GeneID 8816),2,-0.58,inactive
DCAF5 (GeneID 8816),3,-0.213,inactive
FHL2 (GeneID 2274),1,-0.328,inactive
FHL2 (GeneID 2274),2,0.141,inactive
FHL2 (GeneID 2274),3,0.809,inactive
HCN4 (GeneID 10021),1,-0.595,inactive
HCN4 (GeneID 10021),2,-0.76,inactive
HCN4 (GeneID 10021),3,0.271,inactive
PODXL (GeneID 5420),1,3.47,inactive
PODXL (GeneID 5420),2,0.971,inactive
PODXL (GeneID 5420),3,0.151,inactive
RINT1 (GeneID 60561),1,0.329,inactive
RINT1 (GeneID 60561),2,-0.0156,inactive
RINT1 (GeneID 60561),3,0.59,inactive
FANCF (GeneID 2188),1,8.67,active
FANCF (GeneID 2188),2,0.943,inactive
FANCF (GeneID 2188),3,0.343,inactive
HDGFL1 (GeneID 154150),1,-0.137,inactive
HDGFL1 (GeneID 154150),2,-0.621,inactive
HDGFL1 (GeneID 154150),3,-1.1,inactive
LIPM (GeneID 340654),1,0.288,inactive
LIPM (GeneID 340654),2,-1.04,inactive
LIPM (GeneID 340654),3,1.04,inactive
CFAP221 (GeneID 200373),1,0.0848,inactive
CFAP221 (GeneID 200373),2,0.463,inactive
CFAP221 (GeneID 200373),3,0.616,inactive
BCS1L (GeneID 617),1,0.455,inactive
BCS1L (GeneID 617),2,-0.486,inactive
BCS1L (GeneID 617),3,-1.48,inactive
BAG5 (GeneID 9529),1,-0.338,inactive
BAG5 (GeneID 9529),2,1.17,inactive
BAG5 (GeneID 9529),3,-0.16,inactive
CD276 (GeneID 80381),1,1.1,inactive
CD276 (GeneID 80381),2,-1.04,inactive
CD276 (GeneID 80381),3,-0.604,inactive
IRX3 (GeneID 79191),1,-1.01,inactive
IRX3 (GeneID 79191),2,-0.812,inactive
IRX3 (GeneID 79191),3,-0.321,inactive
COL24A1 (GeneID 255631),1,2.75,inactive
COL24A1 (GeneID 255631),2,-0.307,inactive
COL24A1 (GeneID 255631),3,-0.176,inactive
RPF2 (GeneID 84154),1,1.58,inactive
RPF2 (GeneID 84154),2,0.234,inactive
RPF2 (GeneID 84154),3,0.778,inactive

Entries listed so far whose target name begins with S or s (6):
target gene,siRNA no.,G2 robust z-score,outcome
SYN2 (GeneID 6854),1,-0.537,inactive
SYN2 (GeneID 6854),2,-0.96,inactive
SYN2 (GeneID 6854),3,3.51,inactive
SLC25A18 (GeneID 83733),1,3.4,inactive
SLC25A18 (GeneID 83733),2,0.4,inactive
SLC25A18 (GeneID 83733),3,0.227,inactive
